For at least one entry, the source does not settle the construct or the ends of the probe.
Target: T1, PpsR (Rubrivivax gelatinosus) (UniProt I0HUJ5)
T1 sequence: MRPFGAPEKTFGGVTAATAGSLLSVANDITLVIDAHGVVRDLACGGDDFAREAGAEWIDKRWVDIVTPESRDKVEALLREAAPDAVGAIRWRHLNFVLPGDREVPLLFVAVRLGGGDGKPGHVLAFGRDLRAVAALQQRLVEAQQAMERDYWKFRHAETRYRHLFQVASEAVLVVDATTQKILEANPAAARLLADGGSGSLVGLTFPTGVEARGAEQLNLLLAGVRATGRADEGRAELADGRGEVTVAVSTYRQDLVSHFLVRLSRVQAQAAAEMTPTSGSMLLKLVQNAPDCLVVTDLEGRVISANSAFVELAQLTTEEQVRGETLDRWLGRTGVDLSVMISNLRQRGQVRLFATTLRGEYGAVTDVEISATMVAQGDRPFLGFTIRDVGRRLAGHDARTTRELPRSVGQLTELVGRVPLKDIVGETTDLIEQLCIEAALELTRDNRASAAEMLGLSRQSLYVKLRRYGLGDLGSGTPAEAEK
Assay: EMSA
Details: EMSA: 5 nM probe, 25 mM Tris-HCl pH 8.0, 100 mM NaCl, 2 mM MgCl2, 6% glycerol, 50 ug/ml heparin, room temperature 30 min (5 mM DTT if reduced), recombinant protein, residues 1-484, protein details: SUMO (His) tag cleaved, tag-less, label: Cy5, probe letters rebuilt from the primers and the genome, part of a longer molecule; for half-maximal binding: EC50

Row | Sequence | binding result (H2O2-treated, similar to untreated) | half-maximal binding (oxidized (untreated)) [nM] | half-maximal binding (reduced, 5 mM DTT) [nM]
1 | ACCAGTTTCCGTGCTCGACCCGCACGTGGGTTGGCTTCTGTAGCCCTCGGATTTCTCCCTACCGACATGTGTAACGCTACGCTGACAGGGTGGGGGCGTCAACATGTCGTGACACCCCCGCAACGCTGAATGTGTCGCGGCTCTGATCTATGACAAATTGCCGGGGTCCGGCGGGCCTCGGGAGCTCTG (double strand) [pucB promoter EMSA probe] | binds | 49.8 | 63.3
2 | CATCGGAGGGAACCAGGTGATCGGTTTGAGCAACTCCGCTACAGCGGACAACGCGGGCCTTGCCATGGGGCTGAATCTTGCGCTTGACAAAACAGAGCGTCAATTGTCGTTGACACAATCCCTGCCTTAGGACAAGCTCGACGGATGCTGATGAAGTCGGATGCCGCAGCCCCGCGCGCGGCCGGAAAGCAGGAT (double strand) [crtI promoter EMSA probe] |  | 80.5 | 86.5

Source: publication PMC4452267
